For 3 molecules, binding results are on record in publication doi:10.1101/2020.01.24.918458.

Amino acid sequences for entries named in this document (tags omitted).
UniProt P34152: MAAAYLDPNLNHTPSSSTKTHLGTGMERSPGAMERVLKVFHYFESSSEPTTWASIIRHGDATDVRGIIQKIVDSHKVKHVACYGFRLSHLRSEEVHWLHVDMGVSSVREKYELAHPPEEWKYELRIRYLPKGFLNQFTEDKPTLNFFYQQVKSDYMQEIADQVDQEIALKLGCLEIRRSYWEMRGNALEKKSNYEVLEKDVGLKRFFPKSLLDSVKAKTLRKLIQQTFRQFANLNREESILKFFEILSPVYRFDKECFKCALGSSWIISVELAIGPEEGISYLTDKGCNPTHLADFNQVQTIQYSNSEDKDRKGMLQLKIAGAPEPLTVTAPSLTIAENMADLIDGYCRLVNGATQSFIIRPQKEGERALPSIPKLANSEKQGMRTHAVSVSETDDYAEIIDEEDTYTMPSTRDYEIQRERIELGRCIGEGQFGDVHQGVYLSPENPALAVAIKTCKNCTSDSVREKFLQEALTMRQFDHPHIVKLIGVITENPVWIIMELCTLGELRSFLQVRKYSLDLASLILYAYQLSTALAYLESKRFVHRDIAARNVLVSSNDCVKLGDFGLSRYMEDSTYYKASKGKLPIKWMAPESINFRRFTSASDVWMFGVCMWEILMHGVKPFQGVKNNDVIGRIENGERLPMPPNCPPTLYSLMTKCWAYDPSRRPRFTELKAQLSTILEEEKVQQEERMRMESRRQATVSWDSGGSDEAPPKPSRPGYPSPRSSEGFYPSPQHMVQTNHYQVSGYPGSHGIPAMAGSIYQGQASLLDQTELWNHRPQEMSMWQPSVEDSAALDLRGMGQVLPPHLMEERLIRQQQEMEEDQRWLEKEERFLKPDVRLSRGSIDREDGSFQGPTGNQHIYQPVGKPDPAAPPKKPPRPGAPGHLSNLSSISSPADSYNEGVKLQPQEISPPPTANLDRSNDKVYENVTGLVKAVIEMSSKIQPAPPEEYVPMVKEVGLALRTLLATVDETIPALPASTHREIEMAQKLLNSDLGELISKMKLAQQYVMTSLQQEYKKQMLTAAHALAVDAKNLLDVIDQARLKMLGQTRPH
UniProt Q8VI36: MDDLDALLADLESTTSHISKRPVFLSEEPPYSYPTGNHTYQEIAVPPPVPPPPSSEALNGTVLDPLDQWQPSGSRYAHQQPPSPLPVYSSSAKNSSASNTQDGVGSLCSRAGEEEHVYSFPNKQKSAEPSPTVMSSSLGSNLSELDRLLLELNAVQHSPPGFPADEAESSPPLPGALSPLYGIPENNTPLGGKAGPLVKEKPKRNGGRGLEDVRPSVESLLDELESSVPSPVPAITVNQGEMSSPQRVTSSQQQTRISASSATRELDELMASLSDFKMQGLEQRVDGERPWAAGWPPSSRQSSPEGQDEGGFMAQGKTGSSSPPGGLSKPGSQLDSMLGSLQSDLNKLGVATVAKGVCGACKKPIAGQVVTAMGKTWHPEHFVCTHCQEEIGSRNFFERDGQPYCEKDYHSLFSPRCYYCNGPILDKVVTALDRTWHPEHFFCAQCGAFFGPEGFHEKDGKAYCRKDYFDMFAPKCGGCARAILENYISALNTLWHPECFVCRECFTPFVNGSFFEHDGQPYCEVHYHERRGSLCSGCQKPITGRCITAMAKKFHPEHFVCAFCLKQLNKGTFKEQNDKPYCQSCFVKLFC

Results are given in words; binding and its absence hold for the method and conditions named. In cells and extracts the contact can be indirect. A yes stands for co-enrichment or nearness to the bait. Other partners may have been found.

What all share (assay): proximity labelling
Assay [1] has as its target FAK (not stated (mouse and non-mouse baits used)) (UniProt P34152).
For assay [2], the target named is paxillin (not stated (mouse and non-mouse baits used)) (UniProt Q8VI36).
Assay [3] deals with T1, GIT1 (not stated (mouse and non-mouse baits used)) (UniProt Q68FF6).
T1 sequence: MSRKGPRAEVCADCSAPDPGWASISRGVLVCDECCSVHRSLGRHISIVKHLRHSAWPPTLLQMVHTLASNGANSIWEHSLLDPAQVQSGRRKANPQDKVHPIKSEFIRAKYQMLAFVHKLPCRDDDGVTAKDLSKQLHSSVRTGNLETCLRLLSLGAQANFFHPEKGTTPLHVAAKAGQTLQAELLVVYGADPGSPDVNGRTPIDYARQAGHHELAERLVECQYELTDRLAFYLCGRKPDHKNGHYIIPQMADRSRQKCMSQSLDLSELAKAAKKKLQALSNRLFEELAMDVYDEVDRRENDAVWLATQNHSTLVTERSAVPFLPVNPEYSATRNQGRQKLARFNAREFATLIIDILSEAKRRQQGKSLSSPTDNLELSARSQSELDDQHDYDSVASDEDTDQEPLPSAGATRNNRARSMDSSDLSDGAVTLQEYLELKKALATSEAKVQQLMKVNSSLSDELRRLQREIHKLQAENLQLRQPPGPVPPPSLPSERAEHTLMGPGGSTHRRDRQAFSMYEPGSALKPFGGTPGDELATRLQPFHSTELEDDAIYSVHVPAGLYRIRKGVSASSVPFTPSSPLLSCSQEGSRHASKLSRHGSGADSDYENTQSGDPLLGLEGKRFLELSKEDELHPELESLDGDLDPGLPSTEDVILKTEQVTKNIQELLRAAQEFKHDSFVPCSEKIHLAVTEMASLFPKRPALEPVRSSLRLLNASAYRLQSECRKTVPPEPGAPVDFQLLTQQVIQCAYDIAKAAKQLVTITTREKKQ

The target in assay [4] is T2, p130Cas (not stated (mouse and non-mouse baits used)) (UniProt Q61140).
T2 sequence: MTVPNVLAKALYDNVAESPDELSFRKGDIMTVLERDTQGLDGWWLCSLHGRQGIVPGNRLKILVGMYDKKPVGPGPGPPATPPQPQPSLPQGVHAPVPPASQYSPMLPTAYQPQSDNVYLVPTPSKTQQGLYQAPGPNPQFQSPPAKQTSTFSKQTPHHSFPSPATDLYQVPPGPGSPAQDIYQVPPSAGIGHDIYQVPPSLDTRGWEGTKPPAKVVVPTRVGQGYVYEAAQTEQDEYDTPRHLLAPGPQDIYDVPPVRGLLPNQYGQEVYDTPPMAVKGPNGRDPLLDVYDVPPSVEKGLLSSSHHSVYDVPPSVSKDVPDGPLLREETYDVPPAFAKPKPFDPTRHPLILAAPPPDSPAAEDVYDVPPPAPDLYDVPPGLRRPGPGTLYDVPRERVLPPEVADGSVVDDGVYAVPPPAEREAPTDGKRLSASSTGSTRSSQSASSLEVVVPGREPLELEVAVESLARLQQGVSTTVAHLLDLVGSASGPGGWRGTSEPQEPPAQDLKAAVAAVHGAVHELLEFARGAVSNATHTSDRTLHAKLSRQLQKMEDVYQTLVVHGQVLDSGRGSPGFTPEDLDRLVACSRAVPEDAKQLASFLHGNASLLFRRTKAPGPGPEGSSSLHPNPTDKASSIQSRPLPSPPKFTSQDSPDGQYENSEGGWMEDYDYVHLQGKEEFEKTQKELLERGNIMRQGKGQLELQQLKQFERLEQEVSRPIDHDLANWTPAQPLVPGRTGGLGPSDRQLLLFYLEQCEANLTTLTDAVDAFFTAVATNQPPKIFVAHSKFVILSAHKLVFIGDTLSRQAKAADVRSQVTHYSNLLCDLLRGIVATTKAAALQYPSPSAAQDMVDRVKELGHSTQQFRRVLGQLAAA

B1: p130Cas (protein, UniProt Q61140 1-874)
chain: T2 sequence
For the molecule B1, the binding result in assay [1] and in assay [2] was “binds” throughout.

B2: LL5-β (protein, UniProt Q8K1N2 1-1249)
chain: MAEDSHMQKQLEFQNGSLEEGFVVRSLENEPQNMMESLSPRKYSSSLKFKANGDYSGSYLTLSQPVSAKRSPSPMGTSVRSSPSLAKIQGSKQFCDGIDKNISMKPPISFLSSAASLGGYPLGKADLDHYTGRDSERSTRLSEKPPYSRYSSRNKSHDSVYFLGGLEGRKTSGSLLTMWNGNSLSCTGSSPISRSGAASMPSSPKQVRKMNLQDHSTLQPRLSRHKEPASENVSVRTRKYSGSSLSNMGAYSRSLPRLYKATDNQMSPLSLPPRSSLGNSRRGQLGEKDLPHSLVDSDNYLNFSSLSSGASPYKTCLSEGNPYVSSALSVPASPRVARKMLLASTSSDDFDRASYSGTSPSHSFISGEPDRVLVARRNFSCGSMELDDSDLESLRQSSETPQPVLRERKSSISSISGRDDLMDYHRRQREERLREQEMERLERQRLETILSLCAEYTKPEGRRLSAGTTVADVQKINKELEKLQLSDEESVFEDALVCPDARYRCHRKGSLQDVDVAGFGNLGHSASFLAPRGSRSDELLGDLTRTPPSSSAAFLKATNESSYLSILPKTPEDIGEEQRTQELAAMEDARMVILNNLEELEQKIKDINDQMDESSRELDMECALLDGEQKSETAELMKEKEILDHLNRKITELEKNIVGEKTKEKVKLDAEREKLERLQELYSEQKTQLDNCPESMREQLQQQLKRDADLLDVESKHFEDLEFQQLEHESRLDEEKENLTQQLLREVAEYQRNIVARKEKISALKKQASHIVQQAQREQDHFVKEKNNLIMMLQREKENLCNLEKKYSSLTGGKGFPINPNTLKEGYISVNEINESCGNSTNLSPSTQFPADADAAVTEPALAVPVSQPQSSEHFRSLEERKKQHKEGLYLSDTLPRKKTTPSLSPHFSSATMGRSTTPKAHLPLGQSNSCGSVLPHSLATMTKDSESRRMLRGYNHQQMSEGQRQKPEFYSRTASESNVYLNSFHYPDRSYKDQAYDTLSLDSSDSMETSISACSPDNISSASTSNIARIEEMERLLKQAHAEKTRLLESREREMEAKKRALEEEKRRREILEKRLQEETSQRQKLIEKEVKIREKQRAQARPLTRYLPVRKEDFDLRSHVETAGHNIDTCFHVSITEKTCRGYLIKMGGKIKTWKKRWFVFDRNKRTFSYYADKHEAKLKGVIYFQAIEEVYYDHLKNANKSPNPLLTFSVKTHDRIYYMVAPSPEAMRIWMDVIVTGAEGYTHFLL
In the case of B2, the binding result in assay [3] is listed as “binds”.

B3: PTP-PEST (enzyme, UniProt P35831 1-775)
chain: MEQVEILRRFIQRVQAMKSPDHNGEDNFARDFMRLRRLSTKYRTEKIYPTATGEKEENVKKNRYKDILPFDHSRVKLTLKTPSQDSDYINANFIKGVYGPKAYVATQGPLANTVIDFWRMIWEYNVVIIVMACREFEMGRKKCERYWPLYGEDPITFAPFKISCENEQARTDYFIRTLLLEFQNESRRLYQFHYVNWPDHDVPSSFDSILDMISLMRKYQEHEDVPICIHCSAGCGRTGAICAIDYTWNLLKAGKIPEEFNVFNLIQEMRTQRHSAVQTKEQYELVHRAIAQLFEKQLQLYEIHGAQKIADGNEITTGTMVSSIDSEKQDSPPPKPPRTRSCLVEGDAKEEILQPPEPHPVPPILTPSPPSAFPTVTTVWQDSDRYHPKPVLHMASPEQHPADLNRSYDKSADPMGKSESAIEHIDKKLERNLSFEIKKVPLQEGPKSFDGNTLLNRGHAIKIKSASSSVVDRTSKPQELSAGALKVDDVSQNSCADCSAAHSHRAAESSEESQSNSHTPPRPDCLPLDKKGHVTWSLHGPENATPVPDSPDGKSPDNHSQTLKTVSSTPNSTAEEEAHDLTEHHNSSPLLKAPLSFTNPLHSDDSDSDGGSSDGAVTRNKTSISTASATVSPASSAESACTRRVLPMSIARQEVAGTPHSGAEKDADVSEESPPPLPERTPESFVLADMPVRPEWHELPNQEWSEQRESEGLTTSGNEKHDAGGIHTEASADSPPAFSDKKDQITKSPAEVTDIGFGNRCGKPKGPREPPSEWT
On to B3, for which the binding result in assay [1], in assay [4] and in assay [2] was “binds” throughout.
